# Data as given in PubChem BioAssay AID1259308 (NCATS, 2017)
# Purpose: 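Knock-downs that increase output of a recombinant reporter protein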 (primary screen)
# Cells: human HEK293 embryonic kidney cells stably expressing firefly luciferase (HEK-CMV-Luc2-Hygro)
# Reagents: single siRNA against human genes, 0.8 pmol siRNA per well
# Duration: 72 h
# Measurement: 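Reporter luminescence and viable-cell signal on separate replicate plates, given as percent of non-targeting control and median/MAD z-scores, plus per-cell luciferase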
# Reading the numbers: total luciferase, z-score and total luciferase, % of control: higher = more reporter protein produced; luciferase per cell, z-score: higher = more reporter output per viable cell; viable cells, % of control: higher = more viable cells
# Call rule: 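An siRNA counts as active if its total luciferase robust z-score exceeds 3; genes with two or more such siRNAs out of three were retested with fresh siRNAs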
# Meaning of the calls: active = raised luciferase; inactive = no rise
# In all, the deposit lists about 59,000 reagents; below is a random part of them. About 1,510 of all reagents (2.6%) were called active. 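Calls use total luciferase alone and ignore viability, so some active siRNAs may act by altering cell number.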 Entries without a mark were called inactive. The numbers tell different reagents against one gene apart.
Gene,reagent no.,"total luciferase, z-score","total luciferase, % of control","luciferase per cell, z-score","viable cells, % of control"
ACY3 (GeneID 91703),1,-1.31,55.8,-0.355,68.5
ACY3 (GeneID 91703),2,-2.35,35.1,-2.44,74.5
ACY3 (GeneID 91703),3,0.0843,83.6,-0.353,102
ABHD16A (GeneID 7920),1,0.754,96.9,0.417,97
ABHD16A (GeneID 7920),2,1,102,0.76,93.1
ABHD16A (GeneID 7920),3,0.161,85.1,-0.038,96
MC3R (GeneID 4159),1,-0.993,62.1,0.786,56.5
MC3R (GeneID 4159),2,1.32,108,1.02,92.2
MC3R (GeneID 4159),3,2.95,141,1.63,102
EOLA1 (GeneID 91966),1,-0.332,75.3,-0.695,101
EOLA1 (GeneID 91966),2,-0.0581,80.7,0.163,86.4
EOLA1 (GeneID 91966),3,1.82,118,1.28,94.2
EOLA1 (GeneID 91966),4,0.635,94.5,0.0986,103
EOLA1 (GeneID 91966),5,0.293,87.7,0.422,87.7
EOLA1 (GeneID 91966),6,1.34,109,1.12,90.3
ERICH6 (GeneID 131831),1,0.178,85.4,-0.727,116
ERICH6 (GeneID 131831),2,-0.903,63.9,-1.14,96.5
ERICH6 (GeneID 131831),3,0.531,92.4,0.0525,102
PAFAH1B3 (GeneID 5050),1,-0.841,65.2,-1.54,109
PAFAH1B3 (GeneID 5050),2,-0.694,68.1,-0.688,91.2
PAFAH1B3 (GeneID 5050),3,0.0274,82.4,-0.214,97.5
GOLGA2P5 (GeneID 55592),1,-1.11,59.9,-1.1,89.4
GOLGA2P5 (GeneID 55592),2,2.96,141,2.52,81.1
GOLGA2P5 (GeneID 55592),3,1.13,104,0.514,102
SMIM19 (GeneID 114926),1,0.534,92.5,0.0324,102
SMIM19 (GeneID 114926),2,1.03,102,0.501,100
SMIM19 (GeneID 114926),3,-1.37,54.6,-0.126,63.1
TAGLN2 (GeneID 8407),1,0.783,97.5,0.0874,106
TAGLN2 (GeneID 8407),2,0.179,85.4,0.299,88.2
TAGLN2 (GeneID 8407),3,0.509,92,-0.344,113
NUDC (GeneID 10726),1,-0.671,68.5,-0.369,84.4
NUDC (GeneID 10726),2,1.2,106,1.19,86.3
NUDC (GeneID 10726),3,-1.5,52,-1.18,79.1
TAS2R8 (GeneID 50836),1,0.594,93.7,-0.245,112
TAS2R8 (GeneID 50836),2,0.118,84.2,0.224,88.7
TAS2R8 (GeneID 50836),3,1.4,110,0.415,110
RGS9BP (GeneID 388531),1,0.312,88.1,1.65,63.8
RGS9BP (GeneID 388531),2,0.423,90.3,0.428,90.1
RGS9BP (GeneID 388531),3,-1.53,51.4,-0.73,69.6
SLC16A13 (GeneID 201232),1,-0.453,72.9,-0.387,90.2
SLC16A13 (GeneID 201232),2,-0.377,74.4,-0.622,97.9
SLC16A13 (GeneID 201232),3,-0.33,75.3,-0.405,93.6
GBGT1 (GeneID 26301),1,-1.35,55.1,-0.908,78.2
GBGT1 (GeneID 26301),2,-0.582,70.3,0.0454,77.6
GBGT1 (GeneID 26301),3,0.982,101,0.704,94.1
DYNLRB1 (GeneID 83658),1,-1.76,46.8,-1.8,84.1
DYNLRB1 (GeneID 83658),2,1.25,107,0.488,105
DYNLRB1 (GeneID 83658),3,0.827,98.3,0.944,85.7
ADAD1 (GeneID 132612),1,-0.251,76.9,2.2,48.2
ADAD1 (GeneID 132612),2,0.436,90.6,0.12,98
ADAD1 (GeneID 132612),3,-0.335,75.2,-0.728,102
OR1K1 (GeneID 392392),1,-0.0686,80.5,0.161,86.3
OR1K1 (GeneID 392392),2,1.41,110,1.17,90.2
OR1K1 (GeneID 392392),3,0.332,88.5,0.107,96.1
AOC2 (GeneID 314),1,-1.05,61,-0.44,76.5
AOC2 (GeneID 314),2,0.708,96,0.361,97.5
AOC2 (GeneID 314),3,-0.266,76.6,-0.127,88.5
CCDC126 (GeneID 90693),1,0.596,93.7,-0.308,114
CCDC126 (GeneID 90693),2,2.73,136,3.19,65.7
CCDC126 (GeneID 90693),3,2.04,122,1.91,82.9
HMG20B (GeneID 10362),1,-0.461,72.7,-0.00474,81.4
HMG20B (GeneID 10362),2,-0.00978,81.7,-0.404,102
HMG20B (GeneID 10362),3,0.541,92.6,-0.117,107
CCNYL1 (GeneID 151195),1,0.48,91.4,0.938,79.8
CCNYL1 (GeneID 151195),2,5.16 (active),184,3.14,90.2
CCNYL1 (GeneID 151195),3,0.72,96.2,0.681,89.9
RBM45 (GeneID 129831),1,1.64,114,0.915,101
RBM45 (GeneID 129831),2,-0.405,73.8,-0.491,93.9
RBM45 (GeneID 129831),3,1.41,110,1.42,84.5
SMTN (GeneID 6525),1,-1.34,55.2,-0.738,74.9
SMTN (GeneID 6525),2,2.22,126,2.07,81.6
SMTN (GeneID 6525),3,-0.997,62,-1.35,98.9
OR5B17 (GeneID 219965),1,0.28,87.5,-0.172,102
OR5B17 (GeneID 219965),2,-0.543,71.1,-0.88,100
OR5B17 (GeneID 219965),3,0.687,95.6,-0.323,116

Reprinted from above, 12 entries:
Gene,reagent no.,"total luciferase, z-score","total luciferase, % of control","luciferase per cell, z-score","viable cells, % of control"
PAFAH1B3 (GeneID 5050),2,-0.694,68.1,-0.688,91.2
PAFAH1B3 (GeneID 5050),3,0.0274,82.4,-0.214,97.5
GOLGA2P5 (GeneID 55592),1,-1.11,59.9,-1.1,89.4
GOLGA2P5 (GeneID 55592),2,2.96,141,2.52,81.1
GOLGA2P5 (GeneID 55592),3,1.13,104,0.514,102
SMIM19 (GeneID 114926),1,0.534,92.5,0.0324,102
SMIM19 (GeneID 114926),2,1.03,102,0.501,100
SMIM19 (GeneID 114926),3,-1.37,54.6,-0.126,63.1
TAGLN2 (GeneID 8407),1,0.783,97.5,0.0874,106
TAGLN2 (GeneID 8407),2,0.179,85.4,0.299,88.2
TAGLN2 (GeneID 8407),3,0.509,92,-0.344,113
NUDC (GeneID 10726),1,-0.671,68.5,-0.369,84.4
